The text below walks through data of article PMC12267377.

No constants are given. Whether binding was seen depends on the method and setting. In cells and extracts the contact can be indirect. Some entries that bind do so weakly or less than the wild type. For some assays here: Sequences can lack the tags named with a protein.

The target in assay [1] is T1, Wnt7a-Flag (pc-Wnt7a-Flag) (UniProt O00755).
T1 sequence: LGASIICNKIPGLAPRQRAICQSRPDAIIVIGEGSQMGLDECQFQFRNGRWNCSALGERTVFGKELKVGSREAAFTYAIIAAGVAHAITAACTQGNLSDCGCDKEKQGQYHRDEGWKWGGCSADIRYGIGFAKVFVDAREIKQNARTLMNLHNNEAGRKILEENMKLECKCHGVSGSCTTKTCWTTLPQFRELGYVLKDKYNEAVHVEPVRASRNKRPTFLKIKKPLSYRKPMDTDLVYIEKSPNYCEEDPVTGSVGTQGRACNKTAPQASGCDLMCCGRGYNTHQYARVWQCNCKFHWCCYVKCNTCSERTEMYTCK
The experiment in a line: co-IP; HCE-2[50.B1] cell lysate incubated with anti-Flag antibody at 4 °C overnight, protein A/G magnetic beads, western blot for CALR.

The target in assay [2] is Calreticulin (CALR) (human (endogenous in HCE-2[50.B1])) (UniProt P27797). The experiment in a line: co-IP; HCE-2[50.B1] cell lysate incubated with anti-CALR antibody at 4 °C overnight, protein A/G magnetic beads, western blot for Wnt7a. (In general: Immunoblotting shows a protein as a band on a membrane.)

With “Calreticulin (CALR) (from UniProt P27797 18-417)”, the binding result in assay [1] is listed as “binds”.

B1: Wnt7a (protein, UniProt O00755 32-349)
chain: LGASIICNKIPGLAPRQRAICQSRPDAIIVIGEGSQMGLDECQFQFRNGRWNCSALGERTVFGKELKVGSREAAFTYAIIAAGVAHAITAACTQGNLSDCGCDKEKQGQYHRDEGWKWGGCSADIRYGIGFAKVFVDAREIKQNARTLMNLHNNEAGRKILEENMKLECKCHGVSGSCTTKTCWTTLPQFRELGYVLKDKYNEAVHVEPVRASRNKRPTFLKIKKPLSYRKPMDTDLVYIEKSPNYCEEDPVTGSVGTQGRACNKTAPQASGCDLMCCGRGYNTHQYARVWQCNCKFHWCCYVKCNTCSERTEMYTCK
With B1, in assay [2], the binding entry is listed as “binds”.
